# Results as given in PubChem BioAssay AID504834 (National Center for Advancing Translational Sciences (NCATS), 2011).
# The campaign covered roughly 320,000 compounds. About 22,000 (6.9%) were called active. This list was built around the results that the source calls inconclusive (neither active nor inactive); the mix of calls is not that of the screen. Calls follow the shape of the dose curve; as a rule, active = well fitted inhibition curve with a large enough effect; inconclusive = small, poorly fitted or top-dose-only effect, or another doubt; inactive = no such curve, though single readings can be large or run the other way. Potencies of inconclusive entries are doubtful fits and often do not repeat.
# Test: Primary qHTS for delayed death inhibitors of the malarial parasite plastid, 96 hour incubation
# Details: P. falciparum luciferase reporter growth; series mostly up to 28.7 µM; activity change, negative = inhibition: at the top concentration
# How it was run: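 Erythrocytes infected with luciferase-expressing P. falciparum were dispensed at 2% hematocrit and 0.05% parasitemia (final), then incubated with compounds 96 hours at 37 C in 5% CO2. Luminescence after detection reagent addition reported growth.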
# % is scaled to controls: 0 for no effect and ±100 for the full control effect; potency is read from the fitted curve at half-maximal effect.
SMILES,Potency,"activity change, negative = inhibition"
O=C(c1ccccc1Oc1ccc(C(F)(F)F)cc1[N+](=O)[O-])N1CCOCC1,"inconclusive: 10.4 µM [inhibitor, partial curve, poor fit]",
CCOC(=O)N1CCc2c(sc3ncn(C)c(=O)c23)C1,"inconclusive: 18.5 µM [inhibitor, single point]",
COc1ccc(Nc2nnc(SCC(=O)c3cc4ccccc4o3)s2)cc1,"inconclusive: 18.5 µM [inhibitor, single point]",
O=c1c2ccccc2nc(/C=C/c2ccccc2)n1CCCO,,inactive: 0.757%
Cc1ccc(NC(=O)NC2CCCCCCC2)cc1,"inconclusive: 7.38 µM [inhibitor, partial curve, poor fit]",
CCCCC(=O)NC(NC(=S)N1CCCCCC1)C(Cl)(Cl)Cl (stereo not given),,inactive: 4.27%
CCCNC(=O)C1CN(S(=O)(=O)c2ccc(Cl)s2)c2ccccc2O1 (stereo not given),"inconclusive: 14.7 µM [inhibitor, single point]",
CCOc1ccc(N(C(=O)c2snc(C(N)=O)c2N)C(C(=O)NCC2CCCO2)c2ccc(C)o2)cc1 (stereo not given),"inconclusive: 9.28 µM [inhibitor, partial curve, poor fit]",
CCOC(=O)N1CCN(c2ccc(C(=O)c3ccccc3)cc2F)CC1,,inactive: 59%
c1ccc2cc(Cn3ccnc3)ccc2c1,"inconclusive: 18.5 µM [inhibitor, single point]",
COc1ccc(C(=O)OCC(=O)N2CCCCCC2)cc1S(=O)(=O)N1CCOCC1,"inconclusive: 9.28 µM [inhibitor, single point]",
CNC(=S)Nc1cc(OC)c(NC(=O)c2ccco2)cc1OC,"inconclusive: 11.7 µM [inhibitor, single point]",
CC(NCC(O)COc1ccc2ccccc2c1)c1ccccc1 (stereo not given),active: 9.28 µM,
CCOC(=O)C1C(=O)CC(C)(O)C(C(=O)OCC)C1c1ccc(OCC)cc1 (stereo not given),,inactive: 37.2%
Cc1ccc(NC(=O)c2ccccc2NC(=O)c2cccs2)cc1,,inactive: -17.4%
CCCc1nnc(NC(=O)CSc2nnc(-c3ccco3)n2C)s1,,inactive: -18.8%
S=C(NCCN1CCOCC1)NC1CCCC1,,inactive: 16.7% [at 5.75 µM]
Cc1cccc2sc(NNC(=O)c3cc(=O)c4ccccc4o3)nc12,"inconclusive: 10.4 µM [inhibitor, single point]",
O=C(CSc1nc2ccsc2c(=O)n1CC1CCC(C(=O)O)CC1)c1ccc(Cl)cc1 (stereo not given),"inconclusive: 14.7 µM [inhibitor, partial curve, poor fit]",
Nc1ccc2nc(SCc3ccc([N+](=O)[O-])cc3)sc2c1,,inactive: 52.3%
COc1ccc(C(=S)N2CCN(c3ccccc3C)CC2)cc1,active: 8.28 µM,
COc1cc(C(C)=O)ccc1Oc1ncnc2c1cnn2-c1ccc(C)c(C)c1,"inconclusive: 10.4 µM [inhibitor, single point]",
COc1cccc(N2CCN(c3ccc4nnc(CCC(=O)Nc5ccc(F)cc5)n4n3)CC2)c1,"inconclusive: 11.7 µM [inhibitor, partial curve, poor fit]",
C[C@@H](NC(=O)C1(c2ccccc2)CCN(C(=O)OC(C)(C)C)CC1)C(=O)N[C@@H](Cc1ccccc1)C(=O)O,"inconclusive: 0.928 µM [inhibitor, full curve, poor fit]",

# Laid out differently: results already given.
SMILES	Potency	activity change, negative = inhibition
O=c1c2ccccc2nc(/C=C/c2ccccc2)n1CCCO		inactive: 0.757%
Cc1ccc(NC(=O)NC2CCCCCCC2)cc1	inconclusive: 7.38 µM [inhibitor, partial curve, poor fit]	
CCCCC(=O)NC(NC(=S)N1CCCCCC1)C(Cl)(Cl)Cl (stereo not given)		inactive: 4.27%
CCCNC(=O)C1CN(S(=O)(=O)c2ccc(Cl)s2)c2ccccc2O1 (stereo not given)	inconclusive: 14.7 µM [inhibitor, single point]	
CCOc1ccc(N(C(=O)c2snc(C(N)=O)c2N)C(C(=O)NCC2CCCO2)c2ccc(C)o2)cc1 (stereo not given)	inconclusive: 9.28 µM [inhibitor, partial curve, poor fit]	
CCOC(=O)N1CCN(c2ccc(C(=O)c3ccccc3)cc2F)CC1		inactive: 59%
c1ccc2cc(Cn3ccnc3)ccc2c1	inconclusive: 18.5 µM [inhibitor, single point]	
COc1ccc(C(=O)OCC(=O)N2CCCCCC2)cc1S(=O)(=O)N1CCOCC1	inconclusive: 9.28 µM [inhibitor, single point]	
CNC(=S)Nc1cc(OC)c(NC(=O)c2ccco2)cc1OC	inconclusive: 11.7 µM [inhibitor, single point]	
CC(NCC(O)COc1ccc2ccccc2c1)c1ccccc1 (stereo not given)	active: 9.28 µM	
CCOC(=O)C1C(=O)CC(C)(O)C(C(=O)OCC)C1c1ccc(OCC)cc1 (stereo not given)		inactive: 37.2%
Cc1ccc(NC(=O)c2ccccc2NC(=O)c2cccs2)cc1		inactive: -17.4%
CCCc1nnc(NC(=O)CSc2nnc(-c3ccco3)n2C)s1		inactive: -18.8%

# Remaining list, next part

SMILES,Potency,"activity change, negative = inhibition"
CC(=Nc1ccc2c(c1)CCC2)c1c(O)n(C2CCCCC2)c(=O)[nH]c1=O,,inactive: -6.92% [at 5.75 µM]
COc1ccc(Cl)cc1NC(=O)CN(C)C(=O)Cn1[nH]c(=O)c2ccccc2c1=O,"inconclusive: 8.28 µM [inhibitor, partial curve, poor fit]",
COc1ccc(C(=O)Nc2ccccc2NC(=O)c2ccco2)c(OC)c1,,inactive: 38%
COc1ccc2c(c1[N+](=O)[O-])CCC/C2=N/OC(=O)c1ccccc1SC,"inconclusive: 0.0294 µM [inhibitor, full curve, poor fit]",
CN(Cc1ccccc1)C(=O)CCCn1c(=O)[nH]c2cc(Cl)ccc2c1=O,active: 14.7 µM,
Cc1ccc(N(Cc2ccccc2)C(=O)c2cc(S(=O)(=O)N3CCOCC3)ccc2N2CCCC2)cc1,"inconclusive: 2.33 µM [inhibitor, full curve]",
CN1CC(=O)N(CC(=O)Nc2ccc3c(c2)CCC3)C1=O,"inconclusive: 18.5 µM [inhibitor, single point]",
Cc1cc2cc(CCNC(=O)c3ccc(Br)o3)c(=O)[nH]c2cc1C,,inactive: -20.8%
CSc1ncc(CN2CCc3c([nH]c4ccccc34)C2c2cccc(O)c2)cn1 (stereo not given),,inactive: -52.5%
Cc1ccc(NC(=O)c2cccnc2)cc1S(=O)(=O)N(C)C,,inactive: 8.85%
CCc1cccc(N(C(=O)c2csnn2)C(C(=O)NC(C)(C)CC)c2ccccn2)c1 (stereo not given),,inactive: -23%
CCOc1ccc(S(=O)(=O)Nc2cccc(C(=O)N3CCN(c4cccc(OC)c4)CC3)c2)cc1,"inconclusive: 11.7 µM [inhibitor, single point]",
Cn1c(C(=O)c2ccncc2)cc2ccccc21,"inconclusive: 18.5 µM [inhibitor, single point]",
Cc1ccc(C(=O)NC(C)C(c2cccs2)N2CCCC2)s1 (stereo not given),,inactive: 0%
CC1(C)NC(C)(C)C(O)(C(N)=O)C1=O (stereo not given),"inconclusive: 11.7 µM [inhibitor, partial curve, poor fit]",
Cn1c(N2CCC(C(N)=O)CC2)nc2c1c(=O)n(Cc1cccc(Br)c1)c(=O)n2C,"inconclusive: 8.28 µM [inhibitor, partial curve]",
CCc1nnc(NC(=O)CSCc2cc(=O)n3cc(C)sc3n2)s1,,inactive: 29.2%
Fc1ccccc1N1CCN(C2CCN(Cc3c[nH]c4ccccc34)CC2)CC1,active: 3.7 µM,
CC1CCC(C(C)C)C(OC(=O)Cn2nnc3c(cnn3-c3ccccc3)c2=O)C1 (stereo not given),"inconclusive: 11.7 µM [inhibitor, single point]",
O=S(=O)(Nc1cccc2ncccc12)c1cccc(C(F)(F)F)c1,,inactive: -7.26%
CC(OC(=O)c1cc(=O)[nH]c2ccccc12)C(=O)N1C(C)CCCC1C (stereo not given),,inactive: -26.3%
CCC(C)[C@H](N)c1cn([C@@H](Cc2cc3ccccc3[nH]2)C(=O)N2CCNCC2)nn1 (stereo not given in full),"inconclusive: 10.4 µM [inhibitor, single point]",
CCSc1nnc(NC(=O)CSc2nnc(-c3c[nH]c4ccccc34)n2CC)s1,"inconclusive: 10.4 µM [inhibitor, single point]",
COc1ccc(Cn2c(SCc3ccccc3C)nc3cc(OC)c(OC)cc3c2=N)cc1,active: 1.65 µM,

SMILES,Potency,"activity change, negative = inhibition"
COc1ccccc1NS(=O)(=O)c1ccc(N/N=C(\C)C(C)C)c([N+](=O)[O-])c1,"inconclusive: 6.57 µM [inhibitor, partial curve, poor fit]",
CCC1=NN(C(=O)COc2ccccc2)C(O)(c2ccc(Br)cc2)C1 (stereo not given),"inconclusive: 18.5 µM [inhibitor, single point]",
O=S1(=O)N=C(N/N=C/c2ccccn2)c2ccccc21,"inconclusive: 5.22 µM [inhibitor, single point]",
COC(=O)c1c(NC(=O)Cn2cnc([N+](=O)[O-])n2)sc2c1CCC(C)C2 (stereo not given),"inconclusive: 14.7 µM [inhibitor, single point]",
CC(C)N(CCNCC(O)COc1ccc(C(C)(C)c2ccccc2)cc1)C(C)C (stereo not given),"inconclusive: 1.85 µM [inhibitor, partial curve, poor fit]",
COc1cc2c(C#N)c(N3CCc4ccccc4C3)nc(N)c2c(N)n1,"inconclusive: 13.1 µM [inhibitor, partial curve, poor fit]",
CCN1CCN(c2nc3ccccc3nc2C(C#N)C(=O)OCc2ccccc2)CC1 (stereo not given),"inconclusive: 14.7 µM [inhibitor, single point]",
CCOc1ccccc1NC(=O)CCN(c1ccc(C)cc1)S(=O)(=O)c1ccccc1,active: 11.7 µM,
CCCn1c(C(O)c2cccc(OC)c2)nc2ccccc21 (stereo not given),,inactive: -11.5%
CN1CCN(C(=O)CCc2nc3ccccc3n2-c2ccccc2)CC1,,inactive: 33.8%
COc1ccc(CC(=O)NNS(=O)(=O)c2ccccc2)cc1OC,"inconclusive: 10.4 µM [inhibitor, single point]",
N#Cc1nc(COc2ccccc2Cl)oc1N1CCCCCC1,"inconclusive: 18.5 µM [inhibitor, single point]",
COc1ccc(C2CC(C(F)(F)F)n3ncc(C(=O)NCc4cccnc4)c3N2)cc1OC (stereo not given),"inconclusive: 9.28 µM [inhibitor, single point]",
Cc1ccc(C)c(NC(=O)CN(C)C(=O)c2ccccc2Cc2ccccc2)c1,"inconclusive: 10.4 µM [inhibitor, single point]",
COC(=O)c1cccc(NC(N)=S)c1,,inactive: -7.42%
CCC(CCC(=O)Nc1cccc(C(=O)O)c1)C(=O)O (stereo not given),"inconclusive: 2.62 µM [inhibitor, full curve, poor fit]",
Cc1ccc(N/N=C2\CCS(=O)(=O)c3sccc32)cc1,"inconclusive: 0.465 µM [inhibitor, partial curve, poor fit]",
O=c1c2c3nc4ccccc4nc3n(/N=C/c3ccco3)c2ncn1CCC1=CCCCC1,,inactive: 142%
O=C(c1ccc(N2CCCCC2)c([N+](=O)[O-])c1)N1CCOCC1,"inconclusive: 0.0294 µM [inhibitor, full curve, poor fit]",
CCOC(=O)c1cc(S(=O)(=O)N2CCC(C)CC2)cn1C,,inactive: 15.9%
CN(Cc1nc(-c2cnccn2)no1)C1CC(C)(C)NC(C)(C)C1,,inactive: 31.4%
C=CCN(c1ccccc1)S(=O)(=O)c1ccc2c(c1)NC(=O)C(C)S2 (stereo not given),"inconclusive: 11.7 µM [inhibitor, single point]",
